Drawing on PMC4091705, this text covers binding for one substance.

The chains behind the UniProt entries cited, without tags or fusion partners.
UniProt Q17551: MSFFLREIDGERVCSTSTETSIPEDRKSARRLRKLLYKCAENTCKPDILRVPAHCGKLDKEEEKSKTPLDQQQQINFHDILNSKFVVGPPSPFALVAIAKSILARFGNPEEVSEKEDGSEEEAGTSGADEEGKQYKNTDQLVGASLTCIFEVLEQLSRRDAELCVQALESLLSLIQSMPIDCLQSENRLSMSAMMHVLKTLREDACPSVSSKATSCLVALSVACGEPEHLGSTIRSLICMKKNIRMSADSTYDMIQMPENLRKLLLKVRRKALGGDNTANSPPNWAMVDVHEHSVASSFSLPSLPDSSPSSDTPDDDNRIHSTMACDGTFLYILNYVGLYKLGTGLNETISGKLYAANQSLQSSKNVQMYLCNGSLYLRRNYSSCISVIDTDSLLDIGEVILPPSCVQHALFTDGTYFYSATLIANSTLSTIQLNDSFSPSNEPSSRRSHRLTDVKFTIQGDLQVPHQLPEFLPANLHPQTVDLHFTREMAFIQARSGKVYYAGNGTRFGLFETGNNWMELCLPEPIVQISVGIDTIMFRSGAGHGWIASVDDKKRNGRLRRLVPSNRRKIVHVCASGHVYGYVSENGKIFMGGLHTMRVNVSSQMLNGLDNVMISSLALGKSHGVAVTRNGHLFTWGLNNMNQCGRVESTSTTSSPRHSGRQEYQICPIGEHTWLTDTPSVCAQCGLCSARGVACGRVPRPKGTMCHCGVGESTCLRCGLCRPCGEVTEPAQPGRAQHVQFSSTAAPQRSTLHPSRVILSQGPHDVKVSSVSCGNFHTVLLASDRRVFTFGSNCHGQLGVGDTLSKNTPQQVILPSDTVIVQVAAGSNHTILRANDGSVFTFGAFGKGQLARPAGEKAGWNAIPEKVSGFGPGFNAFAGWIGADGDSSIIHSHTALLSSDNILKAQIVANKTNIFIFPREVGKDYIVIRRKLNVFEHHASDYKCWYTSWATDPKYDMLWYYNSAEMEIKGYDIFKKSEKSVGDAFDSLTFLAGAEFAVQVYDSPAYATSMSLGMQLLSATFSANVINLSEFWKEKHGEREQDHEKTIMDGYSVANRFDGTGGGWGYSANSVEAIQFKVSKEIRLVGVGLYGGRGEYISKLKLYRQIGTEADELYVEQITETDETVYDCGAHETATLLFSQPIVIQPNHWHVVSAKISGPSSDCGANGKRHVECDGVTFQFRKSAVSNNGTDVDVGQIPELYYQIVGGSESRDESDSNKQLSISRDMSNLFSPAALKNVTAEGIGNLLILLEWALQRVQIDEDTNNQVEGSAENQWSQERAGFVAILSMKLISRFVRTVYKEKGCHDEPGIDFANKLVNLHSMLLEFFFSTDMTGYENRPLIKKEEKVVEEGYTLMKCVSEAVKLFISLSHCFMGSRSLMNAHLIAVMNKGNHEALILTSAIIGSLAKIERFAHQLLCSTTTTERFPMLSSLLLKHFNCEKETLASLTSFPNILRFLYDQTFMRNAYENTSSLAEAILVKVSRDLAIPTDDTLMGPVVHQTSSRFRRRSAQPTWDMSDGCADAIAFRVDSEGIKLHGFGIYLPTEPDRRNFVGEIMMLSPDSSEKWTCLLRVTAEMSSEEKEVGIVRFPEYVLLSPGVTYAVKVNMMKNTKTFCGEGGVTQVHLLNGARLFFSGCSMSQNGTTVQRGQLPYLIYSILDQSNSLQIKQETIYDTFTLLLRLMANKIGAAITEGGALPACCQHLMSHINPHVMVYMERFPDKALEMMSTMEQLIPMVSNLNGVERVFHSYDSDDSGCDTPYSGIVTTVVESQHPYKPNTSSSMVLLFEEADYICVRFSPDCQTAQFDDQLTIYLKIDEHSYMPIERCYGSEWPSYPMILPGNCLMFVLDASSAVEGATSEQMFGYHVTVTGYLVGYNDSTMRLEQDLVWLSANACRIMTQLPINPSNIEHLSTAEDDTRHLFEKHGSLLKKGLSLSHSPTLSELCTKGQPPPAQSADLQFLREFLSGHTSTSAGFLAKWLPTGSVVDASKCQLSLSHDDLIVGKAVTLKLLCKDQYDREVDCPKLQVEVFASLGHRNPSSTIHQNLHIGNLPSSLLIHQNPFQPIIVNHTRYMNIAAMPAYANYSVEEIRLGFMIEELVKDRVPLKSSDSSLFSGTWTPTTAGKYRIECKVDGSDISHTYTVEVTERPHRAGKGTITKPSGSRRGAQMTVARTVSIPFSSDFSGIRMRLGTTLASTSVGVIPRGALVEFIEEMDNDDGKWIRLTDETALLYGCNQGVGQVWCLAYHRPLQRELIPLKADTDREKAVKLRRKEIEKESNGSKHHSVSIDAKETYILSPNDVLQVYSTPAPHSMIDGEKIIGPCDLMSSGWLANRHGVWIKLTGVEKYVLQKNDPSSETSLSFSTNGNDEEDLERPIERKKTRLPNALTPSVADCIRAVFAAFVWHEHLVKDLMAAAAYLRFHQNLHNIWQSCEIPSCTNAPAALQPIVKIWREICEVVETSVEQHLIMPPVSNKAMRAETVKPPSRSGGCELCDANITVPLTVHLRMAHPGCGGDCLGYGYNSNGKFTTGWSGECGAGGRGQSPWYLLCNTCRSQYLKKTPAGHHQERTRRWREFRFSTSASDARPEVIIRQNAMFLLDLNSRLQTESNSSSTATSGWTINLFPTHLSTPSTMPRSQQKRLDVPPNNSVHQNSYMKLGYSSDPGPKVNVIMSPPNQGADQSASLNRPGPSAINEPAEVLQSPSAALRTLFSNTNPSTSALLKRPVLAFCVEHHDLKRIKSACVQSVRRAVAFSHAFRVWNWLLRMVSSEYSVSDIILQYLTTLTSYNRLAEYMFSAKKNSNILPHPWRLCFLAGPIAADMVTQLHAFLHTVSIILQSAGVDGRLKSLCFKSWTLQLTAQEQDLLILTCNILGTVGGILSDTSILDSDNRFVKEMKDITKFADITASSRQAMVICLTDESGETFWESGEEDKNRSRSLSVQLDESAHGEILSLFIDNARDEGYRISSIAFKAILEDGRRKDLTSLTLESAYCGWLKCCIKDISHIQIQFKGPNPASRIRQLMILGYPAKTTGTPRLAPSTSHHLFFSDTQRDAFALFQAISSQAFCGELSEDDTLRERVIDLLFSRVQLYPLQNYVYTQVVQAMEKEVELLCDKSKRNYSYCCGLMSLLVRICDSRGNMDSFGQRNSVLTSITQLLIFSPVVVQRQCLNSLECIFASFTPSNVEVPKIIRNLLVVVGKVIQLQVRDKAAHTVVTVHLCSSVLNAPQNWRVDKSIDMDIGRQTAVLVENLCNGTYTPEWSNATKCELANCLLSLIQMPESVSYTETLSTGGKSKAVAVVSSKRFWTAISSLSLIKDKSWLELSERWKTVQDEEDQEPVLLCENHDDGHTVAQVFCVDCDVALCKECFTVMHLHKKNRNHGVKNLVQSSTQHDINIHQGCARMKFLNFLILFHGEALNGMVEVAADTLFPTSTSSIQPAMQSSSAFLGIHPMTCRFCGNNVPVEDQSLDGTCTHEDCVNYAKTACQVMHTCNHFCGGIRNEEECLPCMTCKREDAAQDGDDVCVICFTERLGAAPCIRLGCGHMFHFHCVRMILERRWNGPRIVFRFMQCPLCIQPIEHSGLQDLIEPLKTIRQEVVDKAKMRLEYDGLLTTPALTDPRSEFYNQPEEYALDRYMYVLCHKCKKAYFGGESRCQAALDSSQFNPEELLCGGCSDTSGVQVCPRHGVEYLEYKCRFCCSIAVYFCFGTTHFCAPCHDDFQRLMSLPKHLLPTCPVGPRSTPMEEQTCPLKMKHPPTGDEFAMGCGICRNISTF

Results are given in words; binding and its absence hold for the method and conditions named. In cells and extracts the contact can be indirect. Some results given as binding are weak or reduced against the parent protein; the word gives no strength.

The experiment has as its target Regulator of Presynaptic Morphology 1 (RPM-1) fused with Green Fluorescent Protein (C. elegans) (UniProt Q17551). Put plainly: co-IP; whole worm lysates of transgenic animals (juIs58), 0.1% NP-40 lysis buffer, 40 mg total protein extract; RPM-1::GFP precipitated with mouse monoclonal anti-GFP (3E6) and protein G agarose; blot with anti-ANC-1 polyclonal antibodies.

As for “abnormal nuclear Anchorage 1 (ANC-1) (from UniProt Q9N4M4 1-8545)”, the binding result is “binds”.
